Laboratory results: PMC9278858

Experiments:
[1] = biological target: T1, TAP-Sen1ΔNTD (Sen1 lacking the N-terminal domain, TAP-tagged, expressed from pGAL1) (S. cerevisiae) (UniProt Q00416); assay: affinity purification with mass spectrometry; TAP-tagged Sen1 versions (full length, ΔNTD, NTD) overexpressed from pGAL1 as baits; yeast lysates in 10 mM sodium phosphate pH 7.5, 200 mM sodium acetate, 0.25% NP-40, treated with RNase A; IgG Sepharose; elution by TEV cleavage; untagged control
T1 sequence: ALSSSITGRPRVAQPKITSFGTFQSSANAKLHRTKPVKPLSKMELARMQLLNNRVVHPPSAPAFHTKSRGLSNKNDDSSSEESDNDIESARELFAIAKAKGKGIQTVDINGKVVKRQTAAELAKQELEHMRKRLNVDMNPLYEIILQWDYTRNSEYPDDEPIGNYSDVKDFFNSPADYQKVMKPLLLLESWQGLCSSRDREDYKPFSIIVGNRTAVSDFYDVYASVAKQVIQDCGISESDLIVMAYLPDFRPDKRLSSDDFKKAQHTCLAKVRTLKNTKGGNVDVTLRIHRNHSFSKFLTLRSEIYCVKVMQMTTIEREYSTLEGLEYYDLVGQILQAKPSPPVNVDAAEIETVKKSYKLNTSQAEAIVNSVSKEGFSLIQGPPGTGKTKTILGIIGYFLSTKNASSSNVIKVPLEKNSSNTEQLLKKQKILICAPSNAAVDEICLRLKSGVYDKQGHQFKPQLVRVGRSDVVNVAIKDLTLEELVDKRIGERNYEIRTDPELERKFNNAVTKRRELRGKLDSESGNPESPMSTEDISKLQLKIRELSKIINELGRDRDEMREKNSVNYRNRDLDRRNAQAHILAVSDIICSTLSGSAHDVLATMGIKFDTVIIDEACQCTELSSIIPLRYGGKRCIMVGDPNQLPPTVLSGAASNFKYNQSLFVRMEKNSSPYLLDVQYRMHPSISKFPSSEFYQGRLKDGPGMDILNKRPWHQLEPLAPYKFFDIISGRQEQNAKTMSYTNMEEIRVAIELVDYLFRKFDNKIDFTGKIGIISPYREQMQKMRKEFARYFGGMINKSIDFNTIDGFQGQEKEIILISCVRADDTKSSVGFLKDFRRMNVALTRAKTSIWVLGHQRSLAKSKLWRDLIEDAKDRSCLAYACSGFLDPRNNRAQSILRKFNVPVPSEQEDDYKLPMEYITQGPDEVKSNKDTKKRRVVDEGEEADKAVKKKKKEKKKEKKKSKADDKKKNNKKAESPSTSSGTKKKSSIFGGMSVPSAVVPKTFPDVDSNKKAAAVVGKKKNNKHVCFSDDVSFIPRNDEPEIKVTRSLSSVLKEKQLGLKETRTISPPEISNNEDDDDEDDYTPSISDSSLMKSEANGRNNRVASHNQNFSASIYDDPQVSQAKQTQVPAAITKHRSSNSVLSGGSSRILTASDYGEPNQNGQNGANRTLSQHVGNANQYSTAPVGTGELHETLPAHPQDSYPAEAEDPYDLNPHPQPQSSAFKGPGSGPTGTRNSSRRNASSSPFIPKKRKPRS

[2] = biological target: TAP-Sen1 (full-length Sen1 fused to a tandem affinity purification tag, expressed from pGAL1) (S. cerevisiae) (UniProt Q00416); assay: as above
[3] = biological target: Sen1-TAP (wild-type Sen1 fused to a TAP tag) (S. cerevisiae) (UniProt Q00416); assay: affinity purification with mass spectrometry; Sen1-TAP or Sen1-3–TAP as bait; yeast lysates; untagged control
[4] = biological target: Sen1-3–TAP (Sen1 W773A E774A W777A fused to a TAP tag) (S. cerevisiae) (UniProt Q00416); assay: as above

binding [1]: binds
binding [2]: binds
binding [3]: binds
binding [4]: binds
B1: Rpa135 (protein, UniProt P22138 1-1203)
chain: MSKVIKPPGQARTADFRTLERESRFINPPKDKSAFPLLQEAVQPHIGSFNALTEGPDGGLLNLGVKDIGEKVIFDGKPLNSEDEISNSGYLGNKLSVSVEQVSIAKPMSNDGVSSAVERKVYPSESRQRLTSYRGKLLLKLKWSVNNGEENLFEVRDCGGLPVMLQSNRCHLNKMSPYELVQHKEESDEIGGYFIVNGIEKLIRMLIVQRRNHPMAIIRPSFANRGASYSHYGIQIRSVRPDQTSQTNVLHYLNDGQVTFRFSWRKNEYLVPVVMILKALCHTSDREIFDGIIGNDVKDSFLTDRLELLLRGFKKRYPHLQNRTQVLQYLGDKFRVVFQASPDQSDLEVGQEVLDRIVLVHLGKDGSQDKFRMLLFMIRKLYSLVAGECSPDNPDATQHQEVLLGGFLYGMILKEKIDEYLQNIIAQVRMDINRGMAINFKDKRYMSRVLMRVNENIGSKMQYFLSTGNLVSQSGLDLQQVSGYTVVAEKINFYRFISHFRMVHRGSFFAQLKTTTVRKLLPESWGFLCPVHTPDGSPCGLLNHFAHKCRISTQQSDVSRIPSILYSLGVAPASHTFAAGPSLCCVQIDGKIIGWVSHEQGKIIADTLRYWKVEGKTPGLPIDLEIGYVPPSTRGQYPGLYLFGGHSRMLRPVRYLPLDKEDIVGPFEQVYMNIAVTPQEIQNNVHTHVEFTPTNILSILANLTPFSDFNQSPRNMYQCQMGKQTMGTPGVALCHRSDNKLYRLQTGQTPIVKANLYDDYGMDNFPNGFNAVVAVISYTGYDMDDAMIINKSADERGFGYGTMYKTEKVDLALNRNRGDPITQHFGFGNDEWPKEWLEKLDEDGLPYIGTYVEEGDPICAYFDDTLNKTKIKTYHSSEPAYIEEVNLIGDESNKFQELQTVSIKYRIRRTPQIGDKFSSRHGQKGVCSRKWPTIDMPFSETGIQPDIIINPHAFPSRMTIGMFVESLAGKAGALHGIAQDSTPWIFNEDDTPADYFGEQLAKAGYNYHGNEPMYSGATGEELRADIYVGVVYYQRLRHMVNDKFQVRSTGPVNSLTMQPVKGRKRHGGIRVGEMERDALIGHGTSFLLQDRLLNSSDYTQASVCRECGSILTTQQSVPRIGSISTVCCRRCSMRFEDAKKLLTKSEDGEKIFIDDSQIWEDGQGNKFVGGNETTTVAIPFVLKYLDSELSAMGIRLRYNVEPK

These are yes or no findings as the source states them, for the method shown. Binding seen in cells or lysates may run through a third protein. A yes stands for co-enrichment or nearness to the bait. Other partners may have been found. For some of these results: Tags and fused reporters may be left off the sequences shown.
